All values are in %. The controls that fix the scale are not given in the record; negative values are as filed. This is an unselected part of the compounds tested.

Sequences of proteins named here, by UniProt entry; tags and fusion partners are left off.
UniProt E9BF75, entry or part of it: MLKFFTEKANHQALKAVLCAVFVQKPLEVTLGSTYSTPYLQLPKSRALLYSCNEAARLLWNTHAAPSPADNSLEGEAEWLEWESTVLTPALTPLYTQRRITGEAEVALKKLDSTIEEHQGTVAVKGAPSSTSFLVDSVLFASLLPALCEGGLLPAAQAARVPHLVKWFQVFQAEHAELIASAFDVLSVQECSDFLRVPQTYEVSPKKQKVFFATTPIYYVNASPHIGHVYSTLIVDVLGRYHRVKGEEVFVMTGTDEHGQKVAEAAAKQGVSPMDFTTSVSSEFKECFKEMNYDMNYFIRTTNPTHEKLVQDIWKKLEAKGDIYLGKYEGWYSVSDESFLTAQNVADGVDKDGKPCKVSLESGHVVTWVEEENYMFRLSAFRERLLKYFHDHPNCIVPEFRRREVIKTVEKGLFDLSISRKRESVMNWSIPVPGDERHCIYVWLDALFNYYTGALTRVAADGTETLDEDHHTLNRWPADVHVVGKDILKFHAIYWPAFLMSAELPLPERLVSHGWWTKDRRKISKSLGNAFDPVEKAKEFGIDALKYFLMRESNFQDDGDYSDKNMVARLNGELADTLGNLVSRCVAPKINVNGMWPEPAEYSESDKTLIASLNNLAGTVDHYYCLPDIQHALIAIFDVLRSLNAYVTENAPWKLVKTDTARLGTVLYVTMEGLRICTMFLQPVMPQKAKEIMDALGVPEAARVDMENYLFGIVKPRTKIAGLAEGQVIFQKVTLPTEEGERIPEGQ

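Primary screen of methionyl-tRNA synthetase; the read-out is not stated. Target: Methionyl-tRNA synthetase (putative), Leishmania donovani (UniProt E9BF75). The test concentration is not given. The values are filed as inhibition. About 68,000 compounds were tested under these conditions; 0.035% (about 24) showed 50% or more at least once.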

compound | Inhibition
CCCN1CCN(C(=O)c2cc3ccccc3cn2)[C@H]2CS(=O)(=O)C[C@H]21 | 10.44%
COc1ccc2nc(C3CC3)cc(C(=O)NCc3noc(C)n3)c2c1 | 19.55%
CCc1cnc(CN(C)C2CCN(CC3CCC3)C2)o1 (configuration not stated) | 6.7%
CCOc1ncccc1NC(=O)NC1CCN(C(C)=O)CC1 | 21.31%
CN(C)CCO[C@H]1CN(Cc2ccc3c(c2)OCO3)[C@@H]2COC[C@H]12 | 15.56%
O=c1oc(-c2cccs2)nn1CC(O)c1ccc2c(c1)CCC2 (configuration not stated) | -7.427%
CC(C)c1nc(C2CCCN(C(=O)CCCn3ccnc3)C2)no1 (configuration not stated) | 25.56%
CNc1cncc(C2CCCN2S(=O)(=O)c2ccc(F)cc2)n1 (configuration not stated) | 12.22%
COCCN1CCCC2(CCN(C(=O)c3cnc(O)cn3)C2)C1=O (configuration not stated) | 11.24%
Cc1ccc(OCC(O)CN2CCc3c(ncn3C3CC3)C2)cc1 (configuration not stated) | 15.9%
Cc1cccc2c1nc1n2[C@@H](CNC(=O)c2ccccn2)COC1 | 10.51%
Cc1noc(CCCc2nc(C3CCOC3)no2)n1 (configuration not stated) | 14.24%
Cc1ccccc1CS(=O)(=O)CC(=O)NCc1ccccc1F | 20.42%
CCCn1cc(NC(=O)c2cccc(CN3CC=CC3)c2)nn1 | -2.128%
Cc1nc(C2CCCN2C(=O)c2ccccc2)ncc1C(N)=O (configuration not stated) | 16.38%
c1coc(CN2C[C@@H]3CCCO[C@@H]3[C@H](N3CCCC3)C2)c1 | 7.843%
Cc1nc(CN2CC(CCCc3ccccn3)(C(=O)N(C)C)C2)co1 | 11.75%
C=C(C)CN(CC)C(=O)Nc1ccccc1CN(C)C(C)=O | 17.42%
COc1ccccc1OC1(C(=O)O)CCN(c2nccnc2OC)CC1 | 12.97%
Cc1cc(-c2nc(-c3ccccn3)nn2C2CCN(C)CC2)nc(C)n1 | 7.94%
NC(=O)c1cnc(NC2CCN(C(=O)C3CC3)CC2)c(Cl)c1 | 10.42%
COCCn1ccnc1C1CCCN(c2ncnc3c2CCC3)C1 (configuration not stated) | 19.05%
Cc1nccn1CCCN1CCCC(c2ccccc2)C1 (configuration not stated) | 15.87%
CN(Cc1cnccn1)S(=O)(=O)N1CCCC1c1ccco1 (configuration not stated) | 17.46%
CC(C)(C)OC(=O)NC1CCCN(Cc2cccs2)C1 (configuration not stated) | -0.8174%
Cc1cnc(CN(C)C2CCN(Cc3ccc(Cl)s3)C2)o1 (configuration not stated) | 16.38%
Cc1cc(C)n(CC2CN(c3ncnc4[nH]ccc34)CCO2)n1 (configuration not stated) | 18.05%
COCC(O)CNC(=O)c1cnc(-c2ccccc2)nc1O (configuration not stated) | 14.13%
CN1CC(=O)N(c2ccsc2)CC12CCN(S(=O)(=O)c1ccccc1)C2 (configuration not stated) | 11.38%
COc1cccc(CC(C)NC(=O)NCCc2cccnc2)c1 (configuration not stated) | 12.93%
Cc1ccc(C(=O)N2CCCCC2CN(C)C)cc1 (configuration not stated) | 20.25%
Cn1ccnc1COc1ccc(CN2CCC(C(N)=O)CC2)cc1 | 15.1%
Cc1nc(CN2CCc3ccc(S(N)(=O)=O)cc32)oc1C | 0.2793%
CCCn1ccnc1CN1C[C@@H](CN2CCCCC2)[C@@H](CO)C1 | 6.789%
CC(C(=O)N(Cc1ccccc1)CC(F)(F)F)S(C)(=O)=O (configuration not stated) | 13.35%
CCn1c2c(ccc1=O)CC(N)CC2 (configuration not stated) | 3.333%
CC1=Nc2c(c(=O)[nH]n2C(C)C)C(c2cccc(OC(F)F)c2)S1 (configuration not stated) | 17.88%
Cc1ncc(CN2CCOC(c3ccc(-c4cnn(C)c4)cn3)C2)s1 (configuration not stated) | 13.5%
O=C1CC(c2ccncc2)C2(CCN(Cc3cccnc3)CC2)N1 (configuration not stated) | 5.882%
COC(=O)C1CCN(C(=O)Nc2cc(-n3cccc3)ccc2F)CC1 | 14.8%
Cc1nn(C)c(N2CCOCC2)c1CNC1CCc2ccccc21 (configuration not stated) | 19.44%
CC(=O)NCCCSC1CCN(c2c(F)cccc2F)C1=O (configuration not stated) | 2.518%
CNC(=O)c1cccc(NC(=O)c2ccnc(N(C)C)c2)c1C | 10.56%
CCC[C@@H]1CN(c2ncnc3sccc23)C[C@H]1NS(C)(=O)=O | 10.08%
O=c1[nH]nc(CNc2ncc(Br)cn2)[nH]1 | 19.93%
COc1cc(N2CCN(CC3CC3)c3nc(C)ccc3C2)ncn1 | 14.66%
NC(=O)c1ccc(NC(=O)CCN2CCCC(N3CCCC3)C2)cc1 (configuration not stated) | 11.43%
COc1cc(C)nc(N2CCN(C(=O)COCC3CC3)CC2)n1 | 15.79%
CS(=O)(=O)N1CCC2(CC1)COC(COc1ccccn1)C2 (configuration not stated) | 6.052%
CCC(CNC1CCN(C(=O)N(C)C)CC1)Oc1ccccc1C (configuration not stated) | -0.3497%
Cn1cnc2c1C(COCC1CCOCC1)CN(C1CCOCC1)C2 (configuration not stated) | 15.68%
Cc1n[nH]c(C)c1CCC(=O)N1CCc2c(nc[nH]c2=O)C1 | 14.86%
c1ccc2oc(CCCN3CCOC(Cn4cccn4)C3)nc2c1 (configuration not stated) | 13.19%
O=C(NCCC(=O)N1CCCc2ccccc21)c1cc(F)cc(F)c1 | 22.1%
O=C1CCN(C(=O)NCCCc2ccc(Cl)cc2Cl)CCN1 | -3.725%
Cc1nc(C2CCN(C(=O)c3ccc(Cl)s3)CC2)cc(=O)[nH]1 | 11.54%
CC(C)N1CCCC1c1cc(C(F)(F)F)[nH]n1 (configuration not stated) | 6.522%
COc1ccc(F)cc1C(C)NC(=O)Cn1ccc(=O)n(C)c1=O (configuration not stated) | 14.98%
CC(C)C(NC(=O)Nc1ccccn1)c1cccs1 (configuration not stated) | 3.134%
O=C([C@@H]1COC[C@H]2CN(C3CCCC3)C[C@H]21)N1CCC(F)CC1 | 3.361%
NC(=O)C1=NC2=NS(=O)(=O)c3ccccc3N2N1Cc1ccccc1Cl | 19.94%
Cc1cc(C)n(CC2CN(CC(=O)NC3CCOCC3)CCO2)n1 (configuration not stated) | 12.82%
CC1(C(=O)N2CCOCC2)CN(Cc2cccnc2)CCO1 (configuration not stated) | 16.15%
COc1cccc(N2CC3(CCN(C(=O)NC(C)C)C3)CC2=O)c1 (configuration not stated) | 6.536%
COCCN1CCCn2c(nc(Cn3cncn3)cc2=O)C1 | 11.88%
CC(C)OCCC(=O)NCC(c1c(F)cccc1F)N(C)C (configuration not stated) | 19.34%
CCCC(C#N)NC(=O)c1sccc1CC (configuration not stated) | 8.889%
O[C@H]1Cc2ccccc2[C@H]1n1ccnc1-c1cc2n(n1)CCNC2 | 10.05%

For reference, 9 entries once more:

| compound | Inhibition |
|---|---|
| `Cc1n[nH]c(C)c1CCC(=O)N1CCc2c(nc[nH]c2=O)C1` | 14.86% |
| `Cc1cnc(CN(C)C2CCN(Cc3ccc(Cl)s3)C2)o1` (configuration not stated) | 16.38% |
| `O=C(NCCC(=O)N1CCCc2ccccc21)c1cc(F)cc(F)c1` | 22.1% |
| `O=C1CC(c2ccncc2)C2(CCN(Cc3cccnc3)CC2)N1` (configuration not stated) | 5.882% |
| `COCC(O)CNC(=O)c1cnc(-c2ccccc2)nc1O` (configuration not stated) | 14.13% |
| `Cc1nc(C2CCCN2C(=O)c2ccccc2)ncc1C(N)=O` (configuration not stated) | 16.38% |
| `COc1cc(N2CCN(CC3CC3)c3nc(C)ccc3C2)ncn1` | 14.66% |
| `COc1cccc(CC(C)NC(=O)NCCc2cccnc2)c1` (configuration not stated) | 12.93% |
| `Cc1nc(C2CCN(C(=O)c3ccc(Cl)s3)CC2)cc(=O)[nH]1` | 11.54% |

The values are deposited in ChEMBL (CHEMBL3988442, “University of Dundee, Small-Polar-MMV Screening Library” (2021)).